Experimental data: PubChem BioAssay AID504791 (Drosophila RNAi Screening Center, 2011)
The deposit covers about 23,000 reagents; below is a random part of those with a known target gene and a result. Of all reagents, 199 (0.86%) got an active call. 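Plate-scaled ratios behind the calls are not deposited; printed light signals are raw; many rows marked increased or decreased are still called inactive.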 A plus sign joins genes that one reagent is predicted to hit. The record does not give: the direction of the score.

Assay: 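Genes whose knock-down strengthens or weakens small-RNA reporter silencing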 (primary screen)
Cell system: Drosophila S2-derived reporter cells
Knock-down reagent: long dsRNA against Drosophila genes, about 150-250 ng dsRNA per well (siRNA assay); about 80-120 ng (miRNA assay)
Timing: about 5 days (siRNA assay); about 4 days (miRNA assay)
Conditions: copper sulfate induction of reporters: 25 µM (siRNA assay); 200 mM stated (miRNA assay), 1-2 days before reading
Detection: 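Dual luciferase assay: Renilla to firefly signal ratio in each well, scaled to the mean ratio of its plate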
Active means: 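a well was a first-pass pick when its plate-scaled ratio rose above 1.5 (siRNA assay) or 1.6 (miRNA assay), or dropped below 0.6; a gene counted only if two separate dsRNAs agreed on retest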

The opening 3 records, ahead of the listing:
CG14118 [SID104189914]
- stable assay Renilla, run 1 (luminescence): 6027
- stable assay firefly, run 1 (luminescence): 3.61e5
- Outcome: inactive

Ir92a [SID104194903]
- stable assay Renilla, run 1 (luminescence): 6856
- stable assay firefly, run 1 (luminescence): 3.37e5
- Outcome: inactive

mim [SID104184805]
- stable assay Renilla, run 1 (luminescence): 5279
- stable assay firefly, run 1 (luminescence): 2.10e5
- Outcome: inactive

The listing, repeating the preview:
CG14118 [SID104189914]
- stable assay Renilla, run 1 (luminescence): 6027
- stable assay firefly, run 1 (luminescence): 3.61e5
- Outcome: inactive

Ir92a [SID104194903]
- stable assay Renilla, run 1 (luminescence): 6856
- stable assay firefly, run 1 (luminescence): 3.37e5
- Outcome: inactive

mim [SID104184805]
- stable assay Renilla, run 1 (luminescence): 5279
- stable assay firefly, run 1 (luminescence): 2.10e5
- Outcome: inactive

mim [SID104202402]
- stable assay Renilla, run 1 (luminescence): 4164
- stable assay firefly, run 1 (luminescence): 2.90e5
- Outcome: inactive

CG11400 [SID104185862]
- stable assay Renilla, run 1 (luminescence): 6336
- stable assay firefly, run 1 (luminescence): 3.26e5
- Outcome: inactive

S-Lap2 [SID104190420]
- stable assay Renilla, run 1 (luminescence): 7032
- stable assay firefly, run 1 (luminescence): 5.07e5
- Outcome: inactive

Rbsn-5 [SID104182886]
- stable assay Renilla, run 1 (luminescence): 1.28e5
- stable assay firefly, run 1 (luminescence): 7.06e5
- Outcome: inactive

Shawl [SID104182001]
- stable assay Renilla, run 1 (luminescence): 6419
- stable assay firefly, run 1 (luminescence): 3.70e5
- Outcome: inactive

Shawl [SID104182540]
- stable assay Renilla, run 1 (luminescence): 6542
- stable assay firefly, run 1 (luminescence): 3.04e5
- Outcome: inactive

IFT43 [SID104182684]
- stable assay Renilla, run 1 (luminescence): 14788
- stable assay firefly, run 1 (luminescence): 1.70e6
- Outcome: inactive

NfI [SID104196950]
- stable assay Renilla, run 1 (luminescence): 6268
- stable assay firefly, run 1 (luminescence): 3.94e5
- Outcome: inactive

CG12499 [SID104194313]
- stable assay Renilla, run 1 (luminescence): 8523
- stable assay firefly, run 1 (luminescence): 4.45e5
- Outcome: inactive

ord [SID104184498]
- stable assay Renilla, run 1 (luminescence): 6451
- stable assay firefly, run 1 (luminescence): 4.10e5
- Outcome: inactive

mRpL10 [SID104180104]
- stable assay Renilla, run 1 (luminescence): 11641
- stable assay firefly, run 1 (luminescence): 5.02e5
- Outcome: inactive

CG13386 [SID104182052]
- stable assay Renilla, run 1 (luminescence): 7139
- stable assay firefly, run 1 (luminescence): 3.23e5
- Outcome: inactive

CG7639 [SID104186818]
- stable assay Renilla, run 1 (luminescence): 6056
- stable assay firefly, run 1 (luminescence): 2.96e5
- Outcome: inactive

Tmlh [SID104195355]
- stable assay Renilla, run 1 (luminescence): 6674
- stable assay firefly, run 1 (luminescence): 2.82e5
- Outcome: inactive

Fim [SID104200035]
- stable assay Renilla, run 1 (luminescence): 9058
- stable assay firefly, run 1 (luminescence): 4.71e5
- Outcome: inactive

CG13196 [SID104186113]
- stable assay Renilla, run 1 (luminescence): 5074
- stable assay firefly, run 1 (luminescence): 2.27e5
- Outcome: inactive

inaF-B + inaF-D + inaF-C + 1 more [SID104200134]
- stable assay Renilla, run 1 (luminescence): 5843
- stable assay firefly, run 1 (luminescence): 5.07e5
- Outcome: inactive

CG18048 [SID104192365]
- stable assay Renilla, run 1 (luminescence): 6055
- stable assay firefly, run 1 (luminescence): 3.28e5
- Outcome: inactive

CG7766 [SID104198216]
- stable assay Renilla, run 1 (luminescence): 7707
- stable assay firefly, run 1 (luminescence): 4.50e5
- Outcome: inactive

CG6216 [SID104190398]
- stable assay Renilla, run 1 (luminescence): 5522
- stable assay firefly, run 1 (luminescence): 2.88e5
- Outcome: inactive

Men-b [SID104196528]
- stable assay Renilla, run 1 (luminescence): 6303
- stable assay firefly, run 1 (luminescence): 3.09e5
- Outcome: inactive

Klp54D [SID104187242]
- stable assay Renilla, run 1 (luminescence): 6135
- stable assay firefly, run 1 (luminescence): 2.62e5
- Outcome: inactive

CG10737 [SID104185791]
- stable assay Renilla, run 1 (luminescence): 9477
- stable assay firefly, run 1 (luminescence): 3.53e5
- Outcome: inactive

CG13654 [SID104194446]
- stable assay Renilla, run 1 (luminescence): 6916
- stable assay firefly, run 1 (luminescence): 2.67e5
- Outcome: inactive

Ms [SID104195833]
- stable assay Renilla, run 1 (luminescence): 9080
- stable assay firefly, run 1 (luminescence): 3.79e5
- Outcome: inactive
